In paper doi:10.1101/2021.08.09.455663:
These are yes or no findings as the source states them, for the method shown. In cells and extracts the contact can be indirect. A yes stands for co-enrichment or nearness to the bait. Other partners may have been found.

Chains of the proteins cited; added tags and fusions are not shown.
UniProt P42224: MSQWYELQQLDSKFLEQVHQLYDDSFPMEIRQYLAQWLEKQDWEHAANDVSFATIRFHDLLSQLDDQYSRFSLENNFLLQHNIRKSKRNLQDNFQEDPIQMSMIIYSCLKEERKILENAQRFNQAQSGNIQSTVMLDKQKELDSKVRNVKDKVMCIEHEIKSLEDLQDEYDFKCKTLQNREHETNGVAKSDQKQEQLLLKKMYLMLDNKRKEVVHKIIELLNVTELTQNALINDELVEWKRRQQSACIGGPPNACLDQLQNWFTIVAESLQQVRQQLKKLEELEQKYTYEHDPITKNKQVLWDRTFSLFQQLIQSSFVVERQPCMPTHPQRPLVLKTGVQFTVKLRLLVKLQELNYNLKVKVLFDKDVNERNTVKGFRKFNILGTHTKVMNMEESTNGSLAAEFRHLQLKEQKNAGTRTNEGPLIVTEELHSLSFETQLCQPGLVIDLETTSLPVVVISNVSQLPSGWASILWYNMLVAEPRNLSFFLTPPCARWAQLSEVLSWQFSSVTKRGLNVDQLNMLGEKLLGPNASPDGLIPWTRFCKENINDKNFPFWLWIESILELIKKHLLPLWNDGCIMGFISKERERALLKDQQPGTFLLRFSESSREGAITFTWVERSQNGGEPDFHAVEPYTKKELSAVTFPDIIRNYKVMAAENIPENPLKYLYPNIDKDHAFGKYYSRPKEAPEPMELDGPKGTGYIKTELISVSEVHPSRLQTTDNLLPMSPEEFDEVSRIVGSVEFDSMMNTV
UniProt Q92793: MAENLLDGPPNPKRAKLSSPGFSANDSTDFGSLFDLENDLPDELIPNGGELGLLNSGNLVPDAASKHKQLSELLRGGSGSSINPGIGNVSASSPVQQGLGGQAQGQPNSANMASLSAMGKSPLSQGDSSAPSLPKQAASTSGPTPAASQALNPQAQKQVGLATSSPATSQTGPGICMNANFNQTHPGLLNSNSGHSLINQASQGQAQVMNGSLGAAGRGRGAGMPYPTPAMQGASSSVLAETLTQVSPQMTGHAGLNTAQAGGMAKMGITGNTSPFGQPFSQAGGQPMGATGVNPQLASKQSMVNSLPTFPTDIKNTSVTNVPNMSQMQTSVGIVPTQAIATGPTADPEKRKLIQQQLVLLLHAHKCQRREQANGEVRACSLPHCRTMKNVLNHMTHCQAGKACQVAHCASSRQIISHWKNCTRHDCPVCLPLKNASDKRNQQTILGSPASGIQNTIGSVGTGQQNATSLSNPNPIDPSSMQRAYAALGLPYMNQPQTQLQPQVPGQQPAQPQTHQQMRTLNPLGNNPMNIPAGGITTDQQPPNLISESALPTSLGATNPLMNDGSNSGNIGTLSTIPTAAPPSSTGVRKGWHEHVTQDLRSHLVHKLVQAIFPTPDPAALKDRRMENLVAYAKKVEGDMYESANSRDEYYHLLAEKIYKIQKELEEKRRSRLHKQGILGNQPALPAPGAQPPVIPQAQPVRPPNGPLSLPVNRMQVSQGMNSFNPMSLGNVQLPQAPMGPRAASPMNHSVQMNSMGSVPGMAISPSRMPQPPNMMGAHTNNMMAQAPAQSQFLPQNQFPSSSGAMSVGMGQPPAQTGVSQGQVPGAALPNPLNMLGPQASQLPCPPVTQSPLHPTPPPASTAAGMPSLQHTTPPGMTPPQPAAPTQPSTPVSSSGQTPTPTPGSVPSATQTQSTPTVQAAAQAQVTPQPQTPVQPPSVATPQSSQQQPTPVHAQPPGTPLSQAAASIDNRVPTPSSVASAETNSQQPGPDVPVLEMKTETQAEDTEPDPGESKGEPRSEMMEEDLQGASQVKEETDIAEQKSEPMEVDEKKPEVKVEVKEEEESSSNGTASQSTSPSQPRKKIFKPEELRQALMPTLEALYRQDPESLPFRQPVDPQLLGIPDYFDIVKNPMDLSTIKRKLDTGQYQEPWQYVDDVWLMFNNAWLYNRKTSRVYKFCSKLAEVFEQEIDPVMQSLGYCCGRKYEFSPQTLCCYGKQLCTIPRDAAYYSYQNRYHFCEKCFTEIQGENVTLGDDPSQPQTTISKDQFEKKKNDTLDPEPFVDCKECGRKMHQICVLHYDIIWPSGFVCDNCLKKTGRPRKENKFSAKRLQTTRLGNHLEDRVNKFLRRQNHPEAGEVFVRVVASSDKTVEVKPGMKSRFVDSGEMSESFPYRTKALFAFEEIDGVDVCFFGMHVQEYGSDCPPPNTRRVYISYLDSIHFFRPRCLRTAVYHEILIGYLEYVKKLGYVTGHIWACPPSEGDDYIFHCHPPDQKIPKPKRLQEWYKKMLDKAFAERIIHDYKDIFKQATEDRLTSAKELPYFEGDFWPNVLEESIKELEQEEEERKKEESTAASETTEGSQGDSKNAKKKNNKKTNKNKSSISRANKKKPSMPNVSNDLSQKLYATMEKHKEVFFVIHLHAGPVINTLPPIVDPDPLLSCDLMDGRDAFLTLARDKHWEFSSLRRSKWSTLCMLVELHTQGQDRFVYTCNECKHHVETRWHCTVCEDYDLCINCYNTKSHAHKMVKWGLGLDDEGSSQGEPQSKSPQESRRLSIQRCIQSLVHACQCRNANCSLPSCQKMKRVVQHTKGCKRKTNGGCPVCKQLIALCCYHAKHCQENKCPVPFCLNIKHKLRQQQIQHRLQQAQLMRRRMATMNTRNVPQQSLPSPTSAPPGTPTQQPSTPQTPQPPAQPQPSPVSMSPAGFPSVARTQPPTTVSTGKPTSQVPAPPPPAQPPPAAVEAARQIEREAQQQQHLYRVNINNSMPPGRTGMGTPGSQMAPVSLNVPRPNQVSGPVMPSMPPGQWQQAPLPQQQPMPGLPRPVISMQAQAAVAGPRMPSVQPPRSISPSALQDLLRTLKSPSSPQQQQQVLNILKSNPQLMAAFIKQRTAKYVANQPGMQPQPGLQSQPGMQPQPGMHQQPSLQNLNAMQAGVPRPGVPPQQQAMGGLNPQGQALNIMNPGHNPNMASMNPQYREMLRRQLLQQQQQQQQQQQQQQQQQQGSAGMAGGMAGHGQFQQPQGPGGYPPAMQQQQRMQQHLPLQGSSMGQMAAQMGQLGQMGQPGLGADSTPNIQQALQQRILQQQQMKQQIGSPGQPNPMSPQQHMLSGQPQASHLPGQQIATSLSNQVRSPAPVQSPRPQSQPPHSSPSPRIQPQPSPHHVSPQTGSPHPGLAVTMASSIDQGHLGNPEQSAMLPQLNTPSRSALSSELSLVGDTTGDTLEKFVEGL
UniProt Q09472: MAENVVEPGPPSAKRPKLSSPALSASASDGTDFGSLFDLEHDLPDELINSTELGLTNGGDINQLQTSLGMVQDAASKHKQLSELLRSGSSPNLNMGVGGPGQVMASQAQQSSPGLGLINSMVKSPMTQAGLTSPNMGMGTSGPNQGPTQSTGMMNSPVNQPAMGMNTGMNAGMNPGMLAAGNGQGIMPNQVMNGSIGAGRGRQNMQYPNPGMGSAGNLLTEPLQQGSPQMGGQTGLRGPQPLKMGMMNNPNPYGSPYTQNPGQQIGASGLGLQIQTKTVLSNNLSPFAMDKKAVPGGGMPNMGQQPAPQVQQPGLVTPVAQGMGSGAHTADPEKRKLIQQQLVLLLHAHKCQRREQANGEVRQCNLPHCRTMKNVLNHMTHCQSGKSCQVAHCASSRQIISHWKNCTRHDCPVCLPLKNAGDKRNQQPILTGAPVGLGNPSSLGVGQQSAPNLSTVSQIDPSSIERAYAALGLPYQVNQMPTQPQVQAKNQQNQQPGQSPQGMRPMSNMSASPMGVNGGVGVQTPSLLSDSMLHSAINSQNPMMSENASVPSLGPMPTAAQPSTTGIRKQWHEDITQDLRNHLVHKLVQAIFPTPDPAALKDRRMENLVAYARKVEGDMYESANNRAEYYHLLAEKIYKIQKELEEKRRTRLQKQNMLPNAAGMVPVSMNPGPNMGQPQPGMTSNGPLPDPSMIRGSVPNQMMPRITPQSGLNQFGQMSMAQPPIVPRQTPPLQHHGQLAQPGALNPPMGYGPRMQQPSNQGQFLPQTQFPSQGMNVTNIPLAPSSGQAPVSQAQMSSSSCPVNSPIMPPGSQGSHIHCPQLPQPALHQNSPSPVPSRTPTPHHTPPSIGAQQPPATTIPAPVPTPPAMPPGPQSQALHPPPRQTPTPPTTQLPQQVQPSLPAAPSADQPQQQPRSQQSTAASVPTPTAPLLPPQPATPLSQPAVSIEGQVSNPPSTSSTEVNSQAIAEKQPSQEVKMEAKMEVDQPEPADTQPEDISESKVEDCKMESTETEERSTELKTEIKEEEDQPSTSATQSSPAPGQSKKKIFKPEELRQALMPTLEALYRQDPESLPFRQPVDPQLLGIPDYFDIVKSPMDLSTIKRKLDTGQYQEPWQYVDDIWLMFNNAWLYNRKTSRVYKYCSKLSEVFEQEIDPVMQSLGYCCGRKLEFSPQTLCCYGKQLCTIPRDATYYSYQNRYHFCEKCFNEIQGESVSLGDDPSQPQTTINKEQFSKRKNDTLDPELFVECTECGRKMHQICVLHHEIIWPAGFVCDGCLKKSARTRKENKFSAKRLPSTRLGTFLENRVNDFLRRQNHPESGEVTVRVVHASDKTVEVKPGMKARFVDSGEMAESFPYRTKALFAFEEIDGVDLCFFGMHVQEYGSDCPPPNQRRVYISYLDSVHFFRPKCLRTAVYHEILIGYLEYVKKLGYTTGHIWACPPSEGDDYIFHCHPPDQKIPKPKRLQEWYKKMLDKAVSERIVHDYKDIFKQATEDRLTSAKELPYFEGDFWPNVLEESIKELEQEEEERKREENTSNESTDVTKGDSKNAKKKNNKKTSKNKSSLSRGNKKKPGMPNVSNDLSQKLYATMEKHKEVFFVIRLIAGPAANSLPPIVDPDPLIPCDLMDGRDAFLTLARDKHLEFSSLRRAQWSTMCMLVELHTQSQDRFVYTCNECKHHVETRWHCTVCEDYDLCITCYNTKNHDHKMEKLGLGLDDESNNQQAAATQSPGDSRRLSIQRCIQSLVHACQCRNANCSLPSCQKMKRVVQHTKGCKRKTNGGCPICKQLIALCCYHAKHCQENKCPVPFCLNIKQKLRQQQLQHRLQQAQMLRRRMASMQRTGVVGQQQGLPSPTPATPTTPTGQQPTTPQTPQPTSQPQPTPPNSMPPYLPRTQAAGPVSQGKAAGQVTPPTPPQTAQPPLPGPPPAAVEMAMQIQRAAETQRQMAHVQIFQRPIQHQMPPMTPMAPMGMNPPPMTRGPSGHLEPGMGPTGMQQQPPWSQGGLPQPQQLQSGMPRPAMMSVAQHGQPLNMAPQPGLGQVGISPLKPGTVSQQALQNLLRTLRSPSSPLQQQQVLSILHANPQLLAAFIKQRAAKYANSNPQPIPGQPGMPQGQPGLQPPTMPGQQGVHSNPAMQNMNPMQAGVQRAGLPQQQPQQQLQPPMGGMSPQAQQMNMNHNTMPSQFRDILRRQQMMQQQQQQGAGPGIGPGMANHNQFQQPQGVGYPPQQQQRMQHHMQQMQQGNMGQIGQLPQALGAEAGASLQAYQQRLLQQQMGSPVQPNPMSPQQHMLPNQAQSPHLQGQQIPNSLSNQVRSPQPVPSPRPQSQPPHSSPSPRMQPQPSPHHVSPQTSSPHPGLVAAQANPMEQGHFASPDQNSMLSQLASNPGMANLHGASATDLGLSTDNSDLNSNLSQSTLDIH

Molecular target: STAT1 (total and phosphorylated), HEK293T (human (endogenous in HEK293T)) (UniProt P42224)
Test: affinity purification with mass spectrometry

Substance	binding
CBP, HEK293T (from UniProt Q92793 1-2442)	binds
p300, HEK293T (from UniProt Q09472 1-2414)	binds
